Article PMC3923682
No constants are given. Whether binding was seen depends on the method and setting. Binding seen in cells or lysates may run through a third protein. Some results given as binding are weak or reduced against the parent protein; the word gives no strength. Sequences can lack the tags named with a protein.

Protein sequences, listed by entry. Tags and fused reporters are not part of them. Lines headed by an entry give the natural chain unless they say otherwise; changes in a name come on top. Residues count along the entry.
UniProt Q61616: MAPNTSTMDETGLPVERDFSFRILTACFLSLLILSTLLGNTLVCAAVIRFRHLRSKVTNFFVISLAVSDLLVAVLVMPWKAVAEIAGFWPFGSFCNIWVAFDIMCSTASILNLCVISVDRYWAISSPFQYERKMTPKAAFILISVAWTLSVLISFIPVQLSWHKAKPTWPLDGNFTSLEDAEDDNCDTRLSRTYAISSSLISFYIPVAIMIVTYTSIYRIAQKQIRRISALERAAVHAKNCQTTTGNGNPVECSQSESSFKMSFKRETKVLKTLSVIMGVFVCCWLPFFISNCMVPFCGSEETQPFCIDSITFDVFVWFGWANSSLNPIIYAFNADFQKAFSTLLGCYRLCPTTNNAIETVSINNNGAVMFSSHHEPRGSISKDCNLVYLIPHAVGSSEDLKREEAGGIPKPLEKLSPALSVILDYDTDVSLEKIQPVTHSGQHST
Flag-D1R-CT (217–446aa): residues 217-446 of Q61616

Experiments:
Flag-D1R (mouse) = Flag-D1R (mouse) (UniProt Q61616); experiment: co-IP; HEK-293T cells co-transfected with a Flag-tagged and a Myc-tagged construct; lysis in 50 mM Tris-HCl pH 7.4, 150 mM NaCl, 1 mM EDTA, 1% Triton X-100; immunoprecipitation overnight with anti-FLAG M2, elution with 3x FLAG peptide, blot with anti-Myc or anti-Flag
[1] = target: Flag-D1R-CT (217–446aa) (mouse) (UniProt Q61616); experiment: as above

binding (Flag-D1R (mouse)): binds
binding [1]: binds
B1: Myc-SLC35D3 (protein, UniProt Q8BGF8 1-422)
chain: MRQLCRGRVLGISVAIAHGVFSGSLNILLKFLISRYQFSFLTLVQCLTSSTAALSLELLRRLGLIAVPPFGLSLARSFAGVAVLSTLQSSLTLWSLRGLSLPMYVVFKRCLPLVTMLIGVLVLKNGAPSPGVLAAVLITTCGAALAGAGDLTGDPIGYVTGVLAVLVHAAYLVLIQKASADTEHGPLTAQYVIAVSATPLLVICSFASTDSIHAWTFPGWKDPAMVSIFVACILIGCAMNFTTLHCTYINSAVTTSFVGVVKSIATITVGMVAFSDVEPTSLFIAGVVVNTLGSIIYCVAKFLETRRQSNYEDLESQAEGEERQPSGDQLPFVMEELPAKSGNSEPESAEGAGDSVQQGGQESRGSIRGISLAARSSRAEGHSDEVGRRSLKDTYLEVWRLVRGTKYMKKDYLMENEALPSP
